Percent effect of library compounds

The chains behind the UniProt entries cited, without tags or fusion partners. Residues count along the entry.
UniProt P9WPC5, whole entry: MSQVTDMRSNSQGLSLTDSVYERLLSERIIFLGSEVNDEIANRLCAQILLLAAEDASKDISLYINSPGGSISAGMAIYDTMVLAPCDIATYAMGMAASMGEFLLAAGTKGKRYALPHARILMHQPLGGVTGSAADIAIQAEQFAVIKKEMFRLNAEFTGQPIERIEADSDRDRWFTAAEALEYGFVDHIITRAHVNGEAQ
UniProt P9WPC3, whole entry partner: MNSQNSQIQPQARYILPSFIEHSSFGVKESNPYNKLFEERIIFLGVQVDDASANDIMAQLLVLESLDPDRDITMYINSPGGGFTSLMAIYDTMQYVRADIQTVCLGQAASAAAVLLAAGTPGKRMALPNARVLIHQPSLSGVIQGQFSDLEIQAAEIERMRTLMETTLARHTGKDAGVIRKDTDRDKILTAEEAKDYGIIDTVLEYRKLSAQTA
UniProt Q4DA54, 1-478: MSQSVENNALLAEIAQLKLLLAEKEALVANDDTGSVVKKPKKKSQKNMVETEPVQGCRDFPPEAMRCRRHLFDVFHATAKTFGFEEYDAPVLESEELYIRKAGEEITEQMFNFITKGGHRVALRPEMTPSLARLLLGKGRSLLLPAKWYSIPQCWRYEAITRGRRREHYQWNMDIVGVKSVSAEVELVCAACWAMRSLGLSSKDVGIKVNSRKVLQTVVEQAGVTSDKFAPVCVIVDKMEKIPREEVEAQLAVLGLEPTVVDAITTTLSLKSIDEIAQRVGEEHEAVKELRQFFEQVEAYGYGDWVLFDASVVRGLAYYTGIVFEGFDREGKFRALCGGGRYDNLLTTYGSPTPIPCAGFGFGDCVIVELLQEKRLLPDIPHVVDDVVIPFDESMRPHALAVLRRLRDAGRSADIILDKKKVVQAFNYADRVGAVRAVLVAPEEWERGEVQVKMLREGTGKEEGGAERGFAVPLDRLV
UniProt I6X8D2, whole entry: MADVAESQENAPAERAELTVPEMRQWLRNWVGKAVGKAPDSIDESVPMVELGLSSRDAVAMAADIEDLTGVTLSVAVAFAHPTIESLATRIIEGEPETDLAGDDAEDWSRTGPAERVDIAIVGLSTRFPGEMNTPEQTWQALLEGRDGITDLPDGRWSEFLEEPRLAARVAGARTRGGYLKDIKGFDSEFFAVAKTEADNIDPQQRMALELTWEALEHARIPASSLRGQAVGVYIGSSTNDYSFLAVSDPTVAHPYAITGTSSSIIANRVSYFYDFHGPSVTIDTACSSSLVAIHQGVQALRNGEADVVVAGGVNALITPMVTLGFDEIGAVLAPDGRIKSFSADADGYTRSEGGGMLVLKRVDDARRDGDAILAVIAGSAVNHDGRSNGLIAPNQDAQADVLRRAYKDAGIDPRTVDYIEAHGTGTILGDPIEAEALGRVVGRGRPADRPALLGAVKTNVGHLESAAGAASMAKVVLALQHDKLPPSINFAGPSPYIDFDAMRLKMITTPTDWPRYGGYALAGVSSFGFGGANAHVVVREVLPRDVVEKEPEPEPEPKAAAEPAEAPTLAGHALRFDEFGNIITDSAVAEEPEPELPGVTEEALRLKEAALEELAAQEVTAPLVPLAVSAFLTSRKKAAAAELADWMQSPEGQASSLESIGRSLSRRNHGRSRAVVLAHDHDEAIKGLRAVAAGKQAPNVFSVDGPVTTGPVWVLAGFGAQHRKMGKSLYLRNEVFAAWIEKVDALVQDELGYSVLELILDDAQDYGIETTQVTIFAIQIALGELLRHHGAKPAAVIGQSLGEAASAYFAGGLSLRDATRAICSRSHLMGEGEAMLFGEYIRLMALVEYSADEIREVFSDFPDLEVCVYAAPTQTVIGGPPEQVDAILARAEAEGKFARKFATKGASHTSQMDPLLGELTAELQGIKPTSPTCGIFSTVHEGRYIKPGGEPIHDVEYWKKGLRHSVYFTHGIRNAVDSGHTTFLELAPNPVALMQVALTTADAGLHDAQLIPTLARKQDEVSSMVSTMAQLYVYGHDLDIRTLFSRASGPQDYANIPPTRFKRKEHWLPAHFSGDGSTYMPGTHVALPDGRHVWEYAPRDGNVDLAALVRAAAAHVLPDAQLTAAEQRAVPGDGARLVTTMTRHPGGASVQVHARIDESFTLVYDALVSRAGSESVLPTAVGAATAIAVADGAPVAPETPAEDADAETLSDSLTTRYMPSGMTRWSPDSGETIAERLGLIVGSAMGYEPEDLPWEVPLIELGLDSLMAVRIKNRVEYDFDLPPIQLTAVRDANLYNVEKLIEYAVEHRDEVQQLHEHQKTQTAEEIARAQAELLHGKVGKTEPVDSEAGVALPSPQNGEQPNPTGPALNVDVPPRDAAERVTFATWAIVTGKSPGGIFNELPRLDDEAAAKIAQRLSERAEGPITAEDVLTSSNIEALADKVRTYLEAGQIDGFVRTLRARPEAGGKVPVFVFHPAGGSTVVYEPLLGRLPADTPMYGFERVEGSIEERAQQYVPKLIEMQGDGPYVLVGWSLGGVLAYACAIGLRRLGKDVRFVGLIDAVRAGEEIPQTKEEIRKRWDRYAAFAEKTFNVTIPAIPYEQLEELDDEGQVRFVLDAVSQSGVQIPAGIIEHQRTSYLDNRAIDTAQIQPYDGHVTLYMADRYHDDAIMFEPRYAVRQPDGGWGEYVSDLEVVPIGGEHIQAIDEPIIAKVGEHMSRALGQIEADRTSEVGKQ
UniProt Q8IDJ8, 1-583: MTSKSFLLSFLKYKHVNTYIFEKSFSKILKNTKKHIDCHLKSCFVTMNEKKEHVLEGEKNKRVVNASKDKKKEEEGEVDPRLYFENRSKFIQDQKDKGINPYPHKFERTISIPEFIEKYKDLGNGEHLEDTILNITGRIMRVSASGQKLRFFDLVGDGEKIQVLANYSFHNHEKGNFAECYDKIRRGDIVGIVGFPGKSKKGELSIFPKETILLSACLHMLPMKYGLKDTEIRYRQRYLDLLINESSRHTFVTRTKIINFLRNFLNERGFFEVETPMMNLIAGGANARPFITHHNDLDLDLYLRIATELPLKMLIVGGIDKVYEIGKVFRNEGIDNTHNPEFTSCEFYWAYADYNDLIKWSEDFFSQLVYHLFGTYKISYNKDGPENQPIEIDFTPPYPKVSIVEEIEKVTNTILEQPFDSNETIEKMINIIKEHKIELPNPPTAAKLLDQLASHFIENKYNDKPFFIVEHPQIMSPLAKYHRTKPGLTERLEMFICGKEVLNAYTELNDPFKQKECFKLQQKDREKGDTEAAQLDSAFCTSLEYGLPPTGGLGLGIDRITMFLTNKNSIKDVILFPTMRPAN

From ChEMBL document CHEMBL3988442, “University of Dundee, Small-Polar-MMV Screening Library” (2021).

The filed quantity is “Percent Effect” (%). How 0% and 100% were set is not recorded. Most values in the screen are low, and negative values occur. Compounds were drawn at random from those tested, without regard to their results. A dash means the value is not listed here; it may have been measured.

ClpP1P2: 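ClpP1P2, Mycobacterium tuberculosis (UniProt P9WPC5 and UniProt P9WPC3). Protease assay of ClpP1P2, read by the AMC dye that it sets free. Tested at 50 µM. Direction is inferred from only a few compounds that gave an IC50; most scored high, so higher reads as stronger inhibition. Most other retested compounds had strongly negative values. Size under these conditions: about 69,000 compounds, about 10 of them at 50% or above in at least one test.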
Toxoplasma: 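Assay of Toxoplasma gondii numbers, read through their beta-galactosidase reporter with a colour substrate. Concentration: 10 µM. The record gives no direction; the compounds picked for IC50 retests had high values, so higher reads as fewer parasites. Size under these conditions: about 67,000 compounds, about 260 of them at 50% or above in at least one test.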
TcHisRS: 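Enzyme assay of histidyl-tRNA synthetase; the read-out is not stated. Target: Histidine-tRNA ligase, Trypanosoma cruzi CL Brener (UniProt Q4DA54). Compounds at 30 µM. Direction is inferred from retests: higher values go with stronger inhibition. About 69,000 compounds were tested under these conditions; 0.045% (about 31) showed 50% or more at least once.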
Pks13 thioesterase: 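Polyketide synthase Pks13, Mycobacterium tuberculosis (UniProt I6X8D2). Enzyme assay of the thioesterase domain of polyketide synthase 13; the read-out is not stated. Compounds at 30 µM. Higher reads as stronger inhibition (inferred from which compounds were picked for retests). Size under these conditions: about 67,000 compounds, about 300 of them at 50% or above in at least one test.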
PfKRS1: 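Lysine-tRNA ligase, Plasmodium falciparum 3D7 (UniProt Q8IDJ8). Enzyme assay of the cytosolic lysyl-tRNA synthetase in 384-well plates, read by luminescence. Compounds at 30 µM. Higher reads as stronger inhibition, judged from the few compounds that gave an IC50. About 69,000 compounds were tested under these conditions; 0.071% (about 49) showed 50% or more at least once.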

Compound	ClpP1P2	Toxoplasma	TcHisRS	Pks13 thioesterase	PfKRS1
Cc1cc(OCC(=O)N2CCCC(c3nccs3)C2)no1 (configuration not stated)	-10.62	2.983	5.085	-7.475	-0.4359
CCn1nc(C)c(CCNC(=O)C2CCCN(C(N)=O)C2)c1C (configuration not stated)	3.769	25.08	1.345	-2.677	5.05
Cc1c(C(=O)N2CCC(O)(CN(C)C)C2)c2cc(O)ccc2n1C (configuration not stated)	-8.105	6.33	6.522	-28.79	4.6
CNc1cc(C)nc(N2C[C@H](C3CC3)[C@@H](N)C2)n1	0.6664	-0.1732	2.174	-12.59	-0.275
CCN(CC)CCNc1nc(C(C)C)nc2c(C)nn(CC)c12	-0.8431	58.79	0.8696	-13.05	5.452
OCC(O)CSCc1cn(-c2ccc(Cl)cc2)nn1 (configuration not stated)	-0.5387	14.17	-0.8403	-7.188	5.031
Cc1ccc(C(=O)N2CCc3c(CNc4ncccn4)cncc3C2)o1.Cl	-	5.565	-	-	-
Cc1ccc(NC(=O)N(C)C)c(C(=O)OCC(=O)NC2CCCC2)c1	-5.062	-8.351	14.46	-1.896	-0.7029
CCc1nc(C(=O)N2CCOCC2)nn1-c1ccccc1Cl	-5.367	-1.481	7.514	-16.94	0.8467
O=C(O)C1c2nc[nH]c2CCN1Cc1ccc(-c2ccccc2)s1 (configuration not stated)	-0.9449	13.55	8.824	-9.337	3.938
CCN(CC)C(=O)Cn1ccc2cc(NC(=O)COC)ccc21	-18.06	-1.861	8.876	-3.003	-0.3113
CC(Nc1cccc(CN2CCOC2=O)c1)C(=O)Nc1cccc(F)c1 (configuration not stated)	-3.667	-0.1565	6.158	-22.57	0.435
Cc1nsc(N2CCCN(C(=O)CCc3ccsc3)CC2)n1	-7.151	0.1147	2.762	-24.4	1.811
Cc1nn(C)c(C)c1C1COCCN1C(=O)CSC(C)(C)C (configuration not stated)	-0.7794	1.836	3.571	1.883	-4.277
CC(=O)N1CCC2(CCN(Cc3ccccn3)C2=O)C1 (configuration not stated)	1.265	-	2.4	1.286	7.83
[H][C@]12CC[C@]([H])(CN(Cc3ncc[nH]3)C1)N(Cc1c(C)noc1C)C2=O	-	2.303	-	-	-
CCNC(=O)[C@@H]1C[C@H](NC(=O)c2ccc(C)s2)CN1Cc1ccc(C)o1	14.53	7.83	10	4.536	-2.788
CCC(C)NC(=O)c1nnn(-c2cccc3c2CCN(C)C3)c1C (configuration not stated)	2.307	1.163	10	-14.78	5.97
COCc1ccccc1C(=O)NS(=O)(=O)CCCC#N	-6.38	-3.805	5.419	-25.68	7.14
CS(=O)(=O)Cc1cccc(C(=O)N2CCCC(n3cccn3)C2)c1 (configuration not stated)	15.14	-43.53	2.29	-11.79	-1.149
COCC(=O)N1CCC2(CCN(c3cnn(C)c3)C2=O)C1 (configuration not stated)	-9.843	-6.953	-1.754	-19.68	-1.712
C1CN(CC2CC2)C(COCC2CC2)c2nnn(CC3CC3)c21 (configuration not stated)	6.477	-	7.438	-10.36	3.347
CN(C)C(=O)CN1C(=O)CCC12CCN(Cc1cccs1)CC2	20.7	-	5.288	-44.1	4.121
COc1ccc(NC2CCCN(Cc3cnc(N(C)C)s3)C2)cc1 (configuration not stated)	1.359	-0.6789	2.062	-1.42	3.336
Cc1ccc(S(=O)(=O)NCc2cnn(C)c2)c(F)c1	-10.5	-12.82	13.29	-4.187	1.677
Cc1occc1C(=O)Nc1ccnc(OC2CCOC2)c1 (configuration not stated)	-2.197	10.24	2.439	-15.14	2.099
COC(CNC(=O)c1ccc(NC(C)=O)cc1)c1cccc(Cl)c1 (configuration not stated)	-2.555	-0.9671	9.877	0.9749	0.1155
CCc1nc(C2CCCN2CCC(=O)N2CCc3ccccc32)no1 (configuration not stated)	-15.47	6.158	2.924	-17.49	-0.9754
Cc1cccc(OCCC(=O)N2CCCN(C(N)=O)CC2)c1C	4.287	-	0.7519	-28.79	5.914
CCc1[nH]ncc1C(=O)N1CCCC(n2cc(C)cn2)C1 (configuration not stated)	-21.54	-43.08	4.035	-15.38	-0.5764
CNc1nc(N2C[C@H](NC(=O)CCOC)[C@@H](C3CC3)C2)nc2c1CCC2	4.408	5.876	4.706	-	-2.084
O=C(NCC1(N2CCOCC2)CCSC1)Nc1cn[nH]c1 (configuration not stated)	3.082	-2.402	4.926	-26.46	1.133
[H][C@]12CC[C@]([H])(CN(Cc3ccccc3)C1)N(C(=O)CNC(N)=O)C2	-	0.1095	-	-	-
O=C(O)C(F)(F)F.O=C(O)C(F)(F)F.[H][C@]12C[C@@H](CN3CCCC3)N(C)[C@@]1([H])CCN(C(=O)c1occc1C)C2	-	-18.18	-	-	-
Cc1noc(C2CCC3(CCN(C(=O)c4ccn(C)n4)CC3)O2)n1 (configuration not stated)	7.227	-3.416	7.477	-39.48	3.218
O=C(NCC1CC1)[C@H]1C[C@@H]2CN(S(=O)(=O)Cc3ccccc3)C[C@H]1O2	11.23	-	1.639	-34.45	-7.209
COCc1nc(CN2CCOC(CN(C)c3cccnn3)C2)cs1 (configuration not stated)	8.573	3.127	1.681	6.982	2.522

For reference, 2 entries once more:

{"compound": "Cc1ccc(S(=O)(=O)NCc2cnn(C)c2)c(F)c1", "ClpP1P2": -10.5, "Toxoplasma": -12.82, "TcHisRS": 13.29, "Pks13 thioesterase": -4.187, "PfKRS1": 1.677}
{"compound": "CCC(C)NC(=O)c1nnn(-c2cccc3c2CCN(C)C3)c1C", "stereo": "configuration not stated", "ClpP1P2": 2.307, "Toxoplasma": 1.163, "TcHisRS": 10, "Pks13 thioesterase": -14.78, "PfKRS1": 5.97}